No constants are given. Whether binding was seen depends on the method and setting. Binding can be weak; no strength is given.
Molecular target: T1, BCAP-TDA, the first 434 amino acids of human BCAP (human) (UniProt Q6ZUJ8)
T1 sequence: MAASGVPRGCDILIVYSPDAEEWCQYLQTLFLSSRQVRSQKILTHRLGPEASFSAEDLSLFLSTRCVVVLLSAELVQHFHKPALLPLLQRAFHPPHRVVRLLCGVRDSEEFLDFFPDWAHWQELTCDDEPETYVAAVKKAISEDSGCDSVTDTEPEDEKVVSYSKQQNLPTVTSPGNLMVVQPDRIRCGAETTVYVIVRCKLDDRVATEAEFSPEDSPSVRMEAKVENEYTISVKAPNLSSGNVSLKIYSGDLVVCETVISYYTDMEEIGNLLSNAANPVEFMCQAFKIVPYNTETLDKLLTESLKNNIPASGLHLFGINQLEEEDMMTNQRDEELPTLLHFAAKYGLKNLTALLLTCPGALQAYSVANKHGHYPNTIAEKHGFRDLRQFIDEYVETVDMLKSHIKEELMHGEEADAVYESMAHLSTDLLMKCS
Test: two-hybrid; Matchmaker system; bait GAL4-DBD in AH109 mated with prey GAL4-AD in Y187; growth on SD/−Leu/−Trp/−His/−Ade + Xα-Gal + 5 mM 3-AT

Substance: regulatory p85 subunit of PI3K (yeast two-hybrid prey)
- binding: binds

Source: article PMC5241739, “Structure of the Toll/Interleukin-1 Receptor (TIR) Domain of the B-cell Adaptor That Links Phosphoinositide Metabolism with the Negative Regulation of the Toll-like Receptor (TLR) Signalosome*^([image sbox.jpg])” (The Journal of Biological Chemistry, 2016)
